The whole screen tested about 200,000 compounds, of which about 25 (0.01%) were called active. This list was built around the results that the source calls inconclusive (neither active nor inactive); the mix of calls is not that of the screen. Calls follow the shape of the dose curve; as a rule, active = well fitted inhibition curve with a large enough effect in the signal ratio, with a control signal flat (not every such curve was filed as active); inconclusive = small, poorly fitted or top-dose-only effect, or effect the other way, or a change in a side signal; inactive = flat fitted curve, though single readings scatter; the % refers to the signal ratio. Potencies beside an inconclusive call are fits to weak or partial responses and may not hold up.
assay: qHTS Assay for Modulators of Lamin A Splicing; details: HeLa LMNA splicing GFP/RFP minigene ratio, 48 h; ratio change, negative = inhibition: at 46.1 µM (top of the series) unless noted
Summary of the method: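 Read-out is the ratio of GFP to DsRed2 object intensity, acquired by 488 nm laser-scanning cytometry on HeLa lamin A-EGFP minigene reporter cells. Compound incubation 48 hrs at 37 °C in Opti-MEM with 2% FBS; DMSO 0.5% final.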
% is scaled to controls: 0 for no effect and ±100 for the full control effect; potency is read from the fitted curve at half-maximal effect.

SMILES | ratio change, negative = inhibition | Potency
CN(C1CCCCC1)S(=O)(=O)c1ccc(NC(=S)NC(=O)c2cccs2)cc1 | inconclusive: 9.16% | 
COc1ccccc1-c1nnc(SC/C(O)=C(\C#N)c2nc3ccccc3[nH]2)n1C1CCCCC1 | inconclusive: -34.6% | 
Cc1ncc(CO)c(/C=N/NC(=S)Nc2ccc(F)cc2)c1O |  | inconclusive: 35.5 µM [falling, single point]
Cc1ccc(NC(=O)Cn2ccn(Cc3ccc(Cl)cc3)c(=O)c2=O)cc1C | inactive: 8.38% [at 46 µM] | 
O=C(c1ccccc1)N(Cc1nc2ccccc2c(=O)[nH]1)C1CCCCC1 | inactive: -3.67% [at 46 µM] | 
Cn1cc(Cl)c(-c2n[nH]c(=S)n2-c2ccccc2)n1 | inconclusive: -4.88% | 
CCOC(=O)C1(C(C)(C)CC)CC(CSc2nc3ccccc3[nH]2)OC1=O (centres undefined) | inconclusive: -39% | 
COc1ccc(-n2c(=O)cnc3cnc(N(C)C)nc32)cc1 |  | inconclusive: 11.2 µM [inhibitor, single point]
COc1ccc(-c2cc(-n3c(C(F)(F)F)nc4ccccc43)n(CCC#N)n2)cc1 | inconclusive: 11.4% | 
CC(=O)N1c2ccc(S(=O)(=O)NCCc3cccc(C)c3)cc2CC1C (centres undefined) | inactive: -8.5% [at 46 µM] | 
Cc1cccc(N2CCN(C(=O)CCNS(=O)(=O)c3ccc4c(c3)CCN4C(=O)C3CC3)CC2C)c1 (centres undefined) | inconclusive: -21.4% [at 46 µM] | 
COc1ccc(/C=N/NC(=O)c2ccoc2C)cc1COc1c(C)cccc1C |  | inconclusive: 17.8 µM [fluorescent, single point]
Cc1ccccc1C(=O)OC1OC(=O)C(Cl)=C1N1CCOCC1 (centres undefined) | inconclusive: -14.2% | 
O=C(N1CCCC1)C(F)(F)Oc1ccc(F)cc1 | inconclusive: -8.61% [at 46 µM] | 
COc1cccc(/C=N/n2nnc3c(cnn3-c3ccccc3)c2=O)c1 | inactive: -2.12% | 
O=C(CC(=O)c1ccccc1)Nc1cccnc1 | inconclusive: -11.6% | 
COc1cccc(C2C(C#N)=C(N)OC3=C2C(=O)CC(c2ccco2)C3)c1OCc1ccc(F)cc1 (centres undefined) | inactive: 13.6% [at 0.0737 µM] | 
Cc1sc(NC(=S)NC(=O)CCc2ccccc2)c(C(N)=O)c1C | inactive: -17.6% | 
COc1cccc(CN(C)CC(=O)NCc2ccccc2Cl)c1 | inconclusive: -0.946% | 
COCCn1c(=O)c(CCc2ccccc2)nc2cnc(Oc3ccc(OC)cc3)nc21 | inconclusive: -16.4% | 
COc1cc(-c2cn[nH]c2N)cc(OC)c1OC | inactive: -13% | 
CCOC(=O)c1sc(N=NC2=C(O)CC(C)(C)CC2=O)c(C(=O)OCC)c1C | inconclusive: 12.6% [at 9.22 µM] | 
O=C(CCc1nnc(CCCCc2ccccc2)o1)NCc1cccc(F)c1 | inconclusive: 8.21% [at 46 µM] | 
O=S1(=O)c2ccccc2N=NN1Cc1ccc(Cl)cc1 | inactive: -8.79% | 
CC(C)(C)c1ccc(C(=O)Nc2ccc3nc(SCC(=O)N4CCCC4)sc3c2)cc1 | inconclusive: -26.7% [at 46 µM] | 
O=c1cc(CN2CCN(c3ccccc3)CC2)c2c(ccc3ccccc32)o1 | inconclusive: -10.2% | 
Cc1nc(Nc2ccc3c(c2)OCCO3)c2nnn(Cc3ccccc3Cl)c2n1 |  | inconclusive: 35.5 µM [fluorescent, single point]

SMILES | ratio change, negative = inhibition | Potency
O=C(CCS(=O)(=O)c1ccc(Br)cc1)N1CCN(c2ccccc2Cl)CC1 | inconclusive: -34.2% | 
O=C(N/N=C/c1ccc(N2CCOCC2)o1)c1cccc([N+](=O)[O-])c1 | inactive: -6.8% | 
COc1cccc(N2CCN(C(=O)CCn3nc(C)c(S(=O)(=O)N4CCCC4)c3C)CC2)c1 | inactive: -8.98% [at 46 µM] | 
O=C(O)CC1NC(=S)N(c2ccccc2)C1=O (centres undefined) | inactive: -10.4% | 
Cc1ccc(OCC(=O)NNc2c3ccccc3nc3ccccc23)cc1 | inconclusive: -27.1% | 
CCOC(=O)c1c(NC(=O)Cc2cccs2)sc(C(=O)N2CCCCC2)c1C | inactive: 7.44% | 
OCCN1CCN(CCCN2c3ccccc3Sc3ccc(Cl)cc32)CC1 | inconclusive: -9.61% | 
O=[N+]([O-])c1cccc(-c2c[n+]3c(n2-c2ccccc2)SCC3)c1 | inconclusive: -14.4% [at 46 µM] | 
Cc1onc(-c2ccccc2Cl)c1-c1nc(-c2ccccn2)no1 | inconclusive: -16.1% | 
CNCCCC1Sc2ccccc2Oc2ccccc21 (centres undefined) | inactive: -7.07% | 
CCC(=O)Nc1c2c(nn1-c1ccc(F)cc1)CS(=O)C2 (centres undefined) | inactive: 1.24% | 
O=C(C1CCCCC1)N1CCCC(c2nc(-c3ccc(F)cc3)no2)C1 (centres undefined) | inconclusive: -12.4% | 
CC(C)(C)C1CCc2[nH]nc(C(=O)O)c2C1 (centres undefined) | inactive: 0.706% | 
COc1ccc2sc(NC(=O)CC(C)C)nc2c1 | inactive: 20.8% | 
CCn1c(CSc2n[nH]c(N)n2)nc2cc(C(=O)O)ccc21 | inactive: 19.3% [at 46 µM] | 
Cc1cc(/C=C(\C#N)C(=O)NCc2cccs2)c(C)n1-c1ccccc1F | inconclusive: 7.93% | 
Cc1ccc(C)c(N2CCN(c3nnnn3-c3ccccc3)CC2)c1 | inactive: -2.03% | 
CCCCOc1ccc(C(=O)NCC2(c3ccccc3)CCOCC2)cc1 | inconclusive: -24.8% | 
CC1CC(C)CN(C(=O)c2ccc3c(c2NCCO)C(=O)c2ccccc2C3=O)C1 (centres undefined) | inconclusive: 41.7% | 
COc1ccc(Nc2cc(C(=O)NCCCN(C)Cc3ccccc3)c3ccccc3n2)cc1OC | inconclusive: -28.6% [at 46 µM] | 
CCOc1ccc(-c2nc(Cn3c(=O)cc(-c4ccccc4)c4c(C)nn(C)c43)c(C)o2)cc1OC | inactive: -9.78% [at 46 µM] | 
Cn1ncc([N+](=O)[O-])c1C(=O)Nc1ccn(Cc2ccccc2F)n1 | inactive: 12.5% | 
O=C(O)c1ccccc1SCC(=O)N1CCOCC1 | inconclusive: 16% [at 46 µM] | 
CCOC(=O)c1[nH]c(C)c(CCC(=O)Nc2cc(Cl)ccc2C)c1C | inconclusive: 4.63% [at 46 µM] | 
Cc1ccc(CNC(=O)C2CCN(c3nn4cc(-c5ccc(F)cc5)nc4s3)CC2)cc1 | inactive: 9.34% [at 46 µM] | 
O=C1C2C3C=CC(CNS(=O)(=O)c4ccccc4[N+](=O)[O-])(O3)C2C(=O)N1c1ccccc1 (centres undefined) | inconclusive: -52.9% [at 46 µM] | 
O=S(=O)(NCC(c1ccco1)N1CCN(c2ccc(F)cc2)CC1)c1ccc2c(c1)OCCO2 (centres undefined) |  | inconclusive: 22.4 µM [fluorescent, partial curve]

Reformatted: results already given.

| SMILES | ratio change, negative = inhibition | Potency |
| --- | --- | --- |
| CC1CC(C)CN(C(=O)c2ccc3c(c2NCCO)C(=O)c2ccccc2C3=O)C1 (centres undefined) | inconclusive: 41.7% |  |
| COc1ccc(Nc2cc(C(=O)NCCCN(C)Cc3ccccc3)c3ccccc3n2)cc1OC | inconclusive: -28.6% [at 46 µM] |  |
| CCOc1ccc(-c2nc(Cn3c(=O)cc(-c4ccccc4)c4c(C)nn(C)c43)c(C)o2)cc1OC | inactive: -9.78% [at 46 µM] |  |

From PubChem BioAssay AID1487 (National Center for Advancing Translational Sciences (NCATS), 2009)
